Experimental data taken from patent US20240043848A1.
These are yes or no findings as the source states them, for the method shown. In cells and extracts the contact can be indirect. Some results given as binding are weak or reduced against the parent protein; the word gives no strength. Where a sequence is shown, tags or fusion partners need not be part of it.

Molecular target: T1, WT BEST1-CFP-Myc (human) (UniProt O76090)
T1 sequence (looked up): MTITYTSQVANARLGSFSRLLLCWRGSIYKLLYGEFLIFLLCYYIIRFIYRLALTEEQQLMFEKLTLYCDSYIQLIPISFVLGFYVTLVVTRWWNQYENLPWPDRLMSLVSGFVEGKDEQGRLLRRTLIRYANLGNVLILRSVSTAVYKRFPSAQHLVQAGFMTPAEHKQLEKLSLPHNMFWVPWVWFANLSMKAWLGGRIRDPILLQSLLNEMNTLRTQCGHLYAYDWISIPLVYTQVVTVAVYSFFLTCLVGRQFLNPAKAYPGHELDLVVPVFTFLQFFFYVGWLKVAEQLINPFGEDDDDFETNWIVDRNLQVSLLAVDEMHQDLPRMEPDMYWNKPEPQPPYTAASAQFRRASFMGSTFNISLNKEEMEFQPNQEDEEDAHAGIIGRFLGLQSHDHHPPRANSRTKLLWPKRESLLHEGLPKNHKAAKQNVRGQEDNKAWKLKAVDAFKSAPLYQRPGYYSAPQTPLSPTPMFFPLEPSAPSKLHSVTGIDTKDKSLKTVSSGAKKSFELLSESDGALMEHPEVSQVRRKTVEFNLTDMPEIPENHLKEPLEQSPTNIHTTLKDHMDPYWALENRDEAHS
Test: co-immunoprecipitation with anti-Myc antibody from co-transfected HEK293 cells, immunoblot anti-His/anti-Myc

Binder	binding
BEST1 D203A-YFP-His (protein, human, UniProt O76090 1-585, looked up, not shown: large carriers; small tags and cut ends) MTITYTSQVANARLGSFSRLLLCWRGSIYKLLYGEFLIFLLCYYIIRFIYRLALTEEQQLMFEKLTLYCDSYIQLIPISFVLGFYVTLVVTRWWNQYENLPWPDRLMSLVSGFVEGKDEQGRLLRRTLIRYANLGNVLILRSVSTAVYKRFPSAQHLVQAGFMTPAEHKQLEKLSLPHNMFWVPWVWFANLSMKAWLGGRIRAPILLQSLLNEMNTLRTQCGHLYAYDWISIPLVYTQVVTVAVYSFFLTCLVGRQFLNPAKAYPGHELDLVVPVFTFLQFFFYVGWLKVAEQLINPFGEDDDDFETNWIVDRNLQVSLLAVDEMHQDLPRMEPDMYWNKPEPQPPYTAASAQFRRASFMGSTFNISLNKEEMEFQPNQEDEEDAHAGIIGRFLGLQSHDHHPPRANSRTKLLWPKRESLLHEGLPKNHKAAKQNVRGQEDNKAWKLKAVDAFKSAPLYQRPGYYSAPQTPLSPTPMFFPLEPSAPSKLHSVTGIDTKDKSLKTVSSGAKKSFELLSESDGALMEHPEVSQVRRKTVEFNLTDMPEIPENHLKEPLEQSPTNIHTTLKDHMDPYWALENRDEAHS	binds
BEST1 I205T-YFP-His (protein, human, UniProt O76090 1-585, looked up, not shown: large carriers; small tags and cut ends) MTITYTSQVANARLGSFSRLLLCWRGSIYKLLYGEFLIFLLCYYIIRFIYRLALTEEQQLMFEKLTLYCDSYIQLIPISFVLGFYVTLVVTRWWNQYENLPWPDRLMSLVSGFVEGKDEQGRLLRRTLIRYANLGNVLILRSVSTAVYKRFPSAQHLVQAGFMTPAEHKQLEKLSLPHNMFWVPWVWFANLSMKAWLGGRIRDPTLLQSLLNEMNTLRTQCGHLYAYDWISIPLVYTQVVTVAVYSFFLTCLVGRQFLNPAKAYPGHELDLVVPVFTFLQFFFYVGWLKVAEQLINPFGEDDDDFETNWIVDRNLQVSLLAVDEMHQDLPRMEPDMYWNKPEPQPPYTAASAQFRRASFMGSTFNISLNKEEMEFQPNQEDEEDAHAGIIGRFLGLQSHDHHPPRANSRTKLLWPKRESLLHEGLPKNHKAAKQNVRGQEDNKAWKLKAVDAFKSAPLYQRPGYYSAPQTPLSPTPMFFPLEPSAPSKLHSVTGIDTKDKSLKTVSSGAKKSFELLSESDGALMEHPEVSQVRRKTVEFNLTDMPEIPENHLKEPLEQSPTNIHTTLKDHMDPYWALENRDEAHS	binds
BEST1 Y236C-YFP-His (protein, human, UniProt O76090 1-585, looked up, not shown: large carriers; small tags and cut ends) MTITYTSQVANARLGSFSRLLLCWRGSIYKLLYGEFLIFLLCYYIIRFIYRLALTEEQQLMFEKLTLYCDSYIQLIPISFVLGFYVTLVVTRWWNQYENLPWPDRLMSLVSGFVEGKDEQGRLLRRTLIRYANLGNVLILRSVSTAVYKRFPSAQHLVQAGFMTPAEHKQLEKLSLPHNMFWVPWVWFANLSMKAWLGGRIRDPILLQSLLNEMNTLRTQCGHLYAYDWISIPLVCTQVVTVAVYSFFLTCLVGRQFLNPAKAYPGHELDLVVPVFTFLQFFFYVGWLKVAEQLINPFGEDDDDFETNWIVDRNLQVSLLAVDEMHQDLPRMEPDMYWNKPEPQPPYTAASAQFRRASFMGSTFNISLNKEEMEFQPNQEDEEDAHAGIIGRFLGLQSHDHHPPRANSRTKLLWPKRESLLHEGLPKNHKAAKQNVRGQEDNKAWKLKAVDAFKSAPLYQRPGYYSAPQTPLSPTPMFFPLEPSAPSKLHSVTGIDTKDKSLKTVSSGAKKSFELLSESDGALMEHPEVSQVRRKTVEFNLTDMPEIPENHLKEPLEQSPTNIHTTLKDHMDPYWALENRDEAHS	binds
